Results taken from patent publication US20250354118A1, “COMPOSITIONS AND METHODS FOR NK CELL DIFFERENTIATION” (Umoja Biopharma, Inc., priority 2022, published 2025).
For at least one compound, name, drawing or mass did not settle the structure.

System: breast adenocarcinoma MDA-MB231 cells
Experiment: IncuCyte co-culture of iNKs with MDA-MB231 cells expressing a nuclear fluorescent protein
Format: cell-based
Settings: LY294002 added to the differentiation protocol (days 3-14)

**Q.** `O=c1cc(N2CCOCC2)oc2c(-c3ccccc3)cccc12` [LY294002] was tested. Which “innate targeting of MDA cells” value did it give?
**A.** seemed to increase innate targeting of MDA cells
